Data from ChEMBL document CHEMBL4296182, “CO-ADD screening of NIH NCI Diversity Set V”.
Some of the results follow. Potency and affinity values are given separately.

These compounds were tested on Pseudomonas aeruginosa. Conditions: Concentration 20 uM; ASSAY_TEST Inhibition of Bacterial Growth; detection method Absorption (OD600); MEDIA CAMHB; plate type 384well; NBS; CORNING #3640; time 18 hr.

Structure (SMILES)	Inhibition
Nc1cc(O)nc2ncnn12	28.76%
Nc1ccc(C(=O)Nc2ccc(Nc3ccncc3)cc2)cc1	-9.37%
O=[N+]([O-])c1c(N2CCN(CCO)CC2)nc2ccccn12	4.24%
c1ccc(-n2ncc3cccnc32)cc1	0.98%
O=C(O)CCC(=O)c1ccc2ccc3cccc4ccc1c2c34	20.58%
Cc1ccn2c(C(C)O)nnc2c1 (stereo not given)	15.75%
Cl.Nc1ncnc2c(C3OC(CO)C(O)C3O)c[nH]c12 (stereo not given)	-10.08%
O=C1CCC(c2ccccc2)(c2ccccc2)CC1	-4.44%
CC1CC(C)(C)C2=NCCN21 (stereo not given)	6.11%
Clc1ccc(-c2nc(-c3cc4cc(Cl)ccc4o3)cs2)cc1	29.69%
C[C@]12CC[C@H](O)CC1=CC[C@@H]1[C@@H]2CC[C@]2(C)c3n[nH]cc3C[C@@H]12	8.33%
O=C(COc1ccc([N+](=O)[O-])cc1Cl)N1CCOCC1	24.08%
Nc1ccc(C(=O)Nc2cccc(N)c2)cc1	4.25%
COc1cc(Cl)c(CC(=O)c2c[nH]c3ccccc23)cc1OC	10.74%
COc1c(C=O)c2c(c(OC)c1OC)-c1ccc(OC)c(=O)cc1[C@@H](NC(C)=O)CC2	19.46%
CCN(CC)Cc1cc2[nH]c3c4ccc(Cl)cc4ncc3c2cc1OC	29.68%
CCCCN1C(=O)CC(C(=O)OCC)=C1C	-2.02%
CN(C)S(=O)(=O)N1C(=O)c2ccccc2C1=O	-0.85%
CSc1ccc(NC(=O)Nc2cc(C)ccn2)cc1	22.75%
Cc1nc(N)nc(Nc2ccc(C#N)cc2)c1Br	14.08%
CCCCn1cnc2c(S)nc(N)nc21	-14.98%
C=C1S/C(=N\c2c(C)cccc2Cl)N(C(=O)c2sc3ccccc3c2Cl)C12CCCCC2	-6.03%
O=C(O)C(Cc1ccccc1N(CCO)CCO)N1C(=O)c2ccccc2C1=O (stereo not given)	21.43%

5 of these compounds, reformatted:
Structure (SMILES) | Inhibition
Nc1cc(O)nc2ncnn12 | 28.76%
Nc1ccc(C(=O)Nc2ccc(Nc3ccncc3)cc2)cc1 | -9.37%
O=[N+]([O-])c1c(N2CCN(CCO)CC2)nc2ccccn12 | 4.24%
c1ccc(-n2ncc3cccnc32)cc1 | 0.98%
O=C(O)CCC(=O)c1ccc2ccc3cccc4ccc1c2c34 | 20.58%

(cont.)

Structure (SMILES)	Inhibition
O=[N+]([O-])c1ccccc1/C=C/C=N/N=C/c1ccccc1O	14.78%
Nc1ccc(Oc2ccc(N)c([N+](=O)[O-])c2)cc1[N+](=O)[O-]	6.41%
Cc1ccc(NC(=S)NC(=O)c2ccccc2)cc1NC(=S)NC(=O)c1ccccc1	19.52%
Oc1ccnc2c(Cl)cccc12	-8.65%
O=C(OCC(O)COC(=O)c1cccnc1)c1cccnc1	12.36%
Cn1c(=O)c2nc(N3CCCCC3)[nH]c2n(C)c1=O	6.33%
CCOC(=O)C(=O)C1C(=O)Nc2ccccc21 (stereo not given)	0.76%
c1ccc(-c2nc(-c3nccc4ccccc34)oc2-c2ccccc2)cc1	-11.23%
NC(=O)N/N=C1\CC2CC1C1C=CCC21 (stereo not given)	29.96%
CC(=O)Oc1ccc(OC(C)=O)c2c1CC1(C)OC1(C)C2 (stereo not given)	11.45%
COc1cc(NC(=O)CCl)ccc(=O)c1	6.38%
O=C1c2ccccc2C2=C3C(O)=NN=C3CCN12	5.07%
NC(=O)CCC(C(=O)O)N1C(=O)c2ccc(O)cc2C1=O (stereo not given)	-3.18%
CC(C)(C)c1ccc(C(=O)N2CCOC23CCCCC3)cc1	14.96%
CCNc1ccccc1C(=O)O	23.54%
CC(C)(C)c1ccc(NS(=O)(=O)c2ccc(N)cc2)cc1	8.53%
CC1(C)OC2CC(=O)OCC23C1CC(=O)C1(C)C3CCC2(C)C(c3ccoc3)OC(=O)C3OC321 (stereo not given)	19.35%
O=C(Nc1ccc(F)cc1)OCCOc1ccc([N+](=O)[O-])cc1	-7.63%
COc1ccc(NC2=NC(C)(CO)CS2)cc1 (stereo not given)	9.26%
O=C(C=C=Nc1ccccc1)C(=O)N=C=Cc1ccccc1	4.16%
Cc1nn(-c2ccccc2)nc1C(=O)Nc1ccc2[nH]ncc2c1	25.68%
OCc1cc(O)c(CO)nn1	-19.75%
COc1cc(OC)c2c(=O)cc(-c3cccnc3)oc2c1	1.56%

Structure (SMILES)	Inhibition
COc1ccc(Nc2cc(Cl)ccc2C(=O)O)cn1	3.25%
COc1cc(NC(C)=O)c2ncccc2c1NC(C)=O	-13.16%
O=c1c(O)cccc2cc(O)c(O)c(O)c12 [PURPUROGALLIN]	13.67%
CCOC(=O)c1ccc2c(c1)NCc1cccc(OC)c1O2	12.01%
CCN(CC)CCNC(=O)c1ccc(NCN2C(=O)NC(c3ccccc3)(c3ccccc3)C2=O)cc1	12.58%
Cc1nc(SCC(=O)O)n[nH]1 [TIAZOTIC ACID]	13.36%
Cn1c(=O)c2c(nc(N3CCOCC3)n2C)n(C)c1=O	11.44%
CCOC(=O)Nc1csnn1	18.96%
Cc1cc(NC(=O)Nc2cccc3ccccc23)no1	6.83%
O=C(Nc1ccc(Nc2ccncc2)cc1)c1ccc([N+](=O)[O-])cc1	26.85%
COc1ccc(NC2=CC(=S)NC(C)(C)C2)cc1	17.53%
CC(=O)[C@H]1CC[C@H]2[C@@H]3CCC4=CC(=O)CC[C@]4(C)[C@@]3(F)[C@@H](O)C[C@]12C	23.06%
COc1ccccc1/C=C1\Cc2ccccc2C1=O	-8.15%
O=[N+]([O-])C1C(c2ccccc2)C12c1ccccc1-c1ccccc12 (stereo not given)	23.23%
O=c1n(CC2CO2)c(=O)n(CC2CO2)c(=O)n1CC1CO1 (stereo not given) [TEROXIRONE]	7.38%
Cc1cc2c(cc1C)N(C(=O)CCl)CC(=O)N2	-0.8%
NCC(=O)c1cccc2ccc[n+]([O-])c12	1.7%
CSc1nsc(NN)n1	9.86%
Nc1nc(O)c2ncn(C3CCCC3)c2n1	22.89%
CC(C)(C(N)=O)c1ccccc1	20.96%
CC(C)(C)n1nc(C2CC2)cc1NC(=O)Nc1ccc(Cl)cc1	-8.59%
Cc1cnc2cc(Cl)ccc2c1SCC(=O)O	3.5%
Sc1nc2c[nH]c(S)nc-2n1	21.47%

Structure (SMILES)	Inhibition
Cc1cn(C2CC(O)C(CO)O2)c(=O)n(Cc2ccccc2)c1=O (stereo not given)	30.46%
CCCCCc1cc(O)nc(S)n1	2.45%
COC1C(=O)CCC2(CO2)C1(O)C1(C)OC1CC=C(C)C (stereo not given)	20.47%
O=C(NC(=S)Nc1cc(Cl)ccc1O)c1cccc(Br)c1	13.53%
NC(=O)c1ccccc1NC(=O)COc1ccc(Cl)cc1	29.77%
O=C(O)CCNC1CCCCC1	10.22%
Nc1ccc2c(c1)Cc1cc(Cl)c(Cl)cc1-2	20.86%
S=c1c2nc[nH]c2ncn1CCSC1=NC=NC2=NC=NC21 (stereo not given)	13.05%
Nc1ccc(N/C(S)=N/c2ccccc2)cc1	6.3%
O=C(Nc1csnn1)c1csnn1	-4.18%
COc1ccc(/C(C#N)=C/c2cccnc2)cc1	11.13%
O=C(Cn1ccc(=O)[nH]c1=O)Nc1nccs1	15.58%
FC(F)(F)c1nc2nc(Cl)c(Cl)nc2n1CCCN1CCOCC1	-7.1%
COc1cc2c(c3c1c(=O)c1cccc(F)c1n3C)C=CC(C)(C)O2	19.51%
Cc1ccc(Nc2c(O)ncnc2O)cc1C	-28.62%
Nc1ccc(NC(=O)Nc2ccc(N)cc2)cc1	0.96%
Nc1ncncc1-c1ccc2ccccc2c1	4.56%
CN(C)c1ncnc2c1ncn2-c1ccccc1	1.81%
Nc1nc(N)c(/N=N/c2ccc(C(=O)O)cc2)c(N)n1	23.91%
CSc1nc(N)c(C(=O)Nc2ccc([N+](=O)[O-])cc2)s1	26.27%
O=C(Nc1cccc2ccccc12)c1ccccc1	-1%
O=C1COc2c1ccc(O)c2O	8.22%
CCn1c2ccccc2c2cc(NC(=O)Nc3ccc([N+](=O)[O-])cc3C)ccc21	27.19%

Structure (SMILES)	Inhibition
Nc1ncnc(N2CCOCC2)n1	12.94%
NS(=O)(=O)c1ccc(Cl)cc1[N+](=O)[O-]	10.53%
N#C/C(=C\c1c[nH]c2ccccc12)C(N)=O	-1.57%
CCCCSc1nc(O)cc(C(=O)O)n1	1.18%
O=C1CCC(NC(=O)c2ccccc2)C(=O)N1 (stereo not given)	10.66%
OCC1(CO)COC2(CCCC2)N1	18.54%
Cc1ccc(C)c(N2CCN(c3ccncc3N)CC2)c1	11.49%
N#C/C(=C\c1ccc(C#N)cc1)C(=O)c1ccccc1	13.09%
CC(NC(=O)c1ccc(Cl)c(Cl)c1)c1ccc(-c2ccccc2)cc1 (stereo not given)	26.03%
O=[N+]([O-])c1ccc(NN=C(c2ccccc2)c2ccccc2)nc1	13.56%
O=C(Nc1ccc(Cl)c(Cl)c1)Nc1ccccc1O	-9.09%
O=C(O)C1CCC(=O)N1C(=O)OCc1ccccc1 (stereo not given)	27.01%
CCOC(=O)Nc1ccc2[nH]c(-c3cscn3)nc2c1	20.88%
CC(C)n1cnc2c(S)ncnc21	21.29%
Nc1nnc(-c2cccnc2)s1	-1.75%
N=C(NOC(=O)c1ccccc1)C(Cc1ccccc1)C(=O)NOC(=O)c1ccccc1 (stereo not given)	25.5%
CCOC(=O)c1c(C)c(C(=O)OCC)n(C)c1C	-4.64%
[O-]/[N+](=C\c1ccccc1)CC1(O)CCCCC1	12.13%
CCOC(CNCc1cc(C)c2[nH]c3ccccc3c2c1C)OCC	5.75%
CCCOc1nc2c(c(=O)n(C)c(=O)n2C)n1C	2.64%
OCc1ncccc1O	3.5%
Cc1ccc(C(=N)Nc2ccccc2)cc1	8.96%
O=C(Nc1ccccc1)Oc1cccnc1O	4.14%
